The results in this text go back to paper PMC12315821.

By UniProt entry, the sequences of proteins in these tests, tags left out. Where a name states a change or a piece, a line headed by the entry shows the natural chain unless it says otherwise. Residues count along the entry.
UniProt Q86WV6: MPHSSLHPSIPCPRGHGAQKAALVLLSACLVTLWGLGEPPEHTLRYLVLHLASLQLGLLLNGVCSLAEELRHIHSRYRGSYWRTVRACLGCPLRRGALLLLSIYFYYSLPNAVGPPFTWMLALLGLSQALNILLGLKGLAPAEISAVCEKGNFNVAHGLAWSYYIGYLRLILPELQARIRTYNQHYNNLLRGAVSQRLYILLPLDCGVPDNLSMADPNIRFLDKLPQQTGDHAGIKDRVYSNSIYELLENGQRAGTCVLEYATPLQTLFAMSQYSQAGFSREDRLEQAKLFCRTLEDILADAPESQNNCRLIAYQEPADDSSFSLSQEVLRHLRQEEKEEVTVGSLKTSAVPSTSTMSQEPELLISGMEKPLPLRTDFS
UniProt Q15843, residues 1-76: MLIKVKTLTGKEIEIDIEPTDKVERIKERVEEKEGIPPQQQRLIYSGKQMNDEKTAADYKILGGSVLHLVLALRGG

The target in assay [1] is STING, endogenous in SH-SY5Y cells (human (endogenous in SH-SY5Y)) (UniProt Q86WV6). Kind of assay: co-IP; endogenous proteins in SH-SY5Y lysates, cells with or without NETs; Pierce Crosslink Magnetic Co-IP Kit, lysates with antibody-bound beads overnight at 4°C; for NEDD8-STING (Figure 7J) MG132 (10 μM) for 6 hours and TRIM56 knockdown.
In another assay the target is T1, HA-TRIM56 (UniProt Q9BRZ2).
T1 sequence: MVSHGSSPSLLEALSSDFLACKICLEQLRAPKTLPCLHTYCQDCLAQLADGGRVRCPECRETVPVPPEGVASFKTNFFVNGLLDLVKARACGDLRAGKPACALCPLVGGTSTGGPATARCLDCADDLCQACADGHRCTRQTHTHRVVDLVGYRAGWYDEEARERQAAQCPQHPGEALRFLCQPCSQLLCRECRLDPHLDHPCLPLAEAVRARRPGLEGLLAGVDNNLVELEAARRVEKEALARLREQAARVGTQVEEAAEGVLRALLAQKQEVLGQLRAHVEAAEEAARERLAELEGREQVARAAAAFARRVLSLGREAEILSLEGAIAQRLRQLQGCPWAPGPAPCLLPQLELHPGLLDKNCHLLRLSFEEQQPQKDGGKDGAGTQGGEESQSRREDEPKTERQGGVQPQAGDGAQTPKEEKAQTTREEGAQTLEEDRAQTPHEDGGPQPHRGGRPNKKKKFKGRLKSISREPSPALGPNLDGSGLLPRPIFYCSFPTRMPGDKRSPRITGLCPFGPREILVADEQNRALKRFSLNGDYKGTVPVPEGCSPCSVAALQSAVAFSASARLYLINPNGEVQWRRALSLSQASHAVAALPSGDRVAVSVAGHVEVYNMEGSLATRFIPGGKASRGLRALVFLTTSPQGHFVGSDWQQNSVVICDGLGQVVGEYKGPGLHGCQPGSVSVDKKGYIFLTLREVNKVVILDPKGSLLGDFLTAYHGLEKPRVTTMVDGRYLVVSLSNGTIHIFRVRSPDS
Put plainly: co-IP; anti-HA precipitation from 293T lysates transfected with MYC-NEDD8 or Flag-STING and HA-TRIM56 constructs.

The target of assay [2] is T2, TRIM56, endogenous in SH-SY5Y cells (human (endogenous in SH-SY5Y)) (UniProt Q9BRZ2).
T2 sequence: T1 sequence
Put plainly: co-IP; endogenous proteins in SH-SY5Y lysates, cells with or without NETs; Pierce Crosslink Magnetic Co-IP Kit, lysates with antibody-bound beads overnight at 4°C; for NEDD8-STING (Figure 7J) MG132 (10 μM) for 6 hours and TRIM56 knockdown.

Assay [3] deals with neuronal precursor cell-expressed developmentally down-regulated protein 8 (NEDD8), endogenous in SH-SY5Y cells (human (endogenous in SH-SY5Y)) (UniProt Q15843). The assay is described as above.
A further assay deals with Flag-STING (UniProt Q86WV6). Kind of assay: co-IP; anti-Flag precipitation from 293T lysates transfected with HA-TRIM56 and Flag-STING constructs.

These are yes or no findings as the source states them, for the method shown. Binding seen in cells or lysates may run through a third protein. Some entries that bind do so weakly or less than the wild type. For part of these data: Where a sequence is shown, tags or fusion partners need not be part of it.

“neuronal precursor cell-expressed developmentally down-regulated protein 8 (NEDD8), endogenous in SH-SY5Y cells (from UniProt Q15843 1-76)”: in assay [1], the binding result was “binds”. Turning to MYC-NEDD8 (from UniProt Q15843 1-76), the binding result in the assay with HA-TRIM56 is on record as “binds”. As for “STING, endogenous in SH-SY5Y cells (from UniProt Q86WV6 1-379)”, the binding entry in assay [2] is listed as “binds”. Flag-STING (from UniProt Q86WV6 1-379): the binding entry with HA-TRIM56 is “binds”.

B1: TRIM56, endogenous in SH-SY5Y cells (protein, UniProt Q9BRZ2 1-755)
chain: T1 sequence
In the case of B1, the binding entry in assay [3] was “binds”.

B2: HA-TRIM56 (protein, UniProt Q9BRZ2 1-755)
chain: T1 sequence
Turning to B2, the binding result with Flag-STING is on record as “binds”.
